Measured values: patent US7125853B2, “Bicyclic carbohydrate compounds useful in the treatment of infections caused by Flaviviridae sp., such as hepatitis C and bovine viral diarrhea viruses” (Kemin Pharma B.V.B.A., priority 2003, dated 2006)
Some entries share one result that the patent states for a list of compounds. For at least one compound, name, drawing or mass did not settle the structure.

System: MDBK cells
Assay: cytotoxicity in MDBK cells (MTS method)
Format: cell-based, bovine
Settings: minimal toxic concentration causing >=20% reduction in cell metabolism; highest concentration 100 μg/ml
Procedure: The compounds were also screened against flaviviruses. Due to the fact that there is no adequate in vitro assay to screen against HCV, we opted to screen against the bovine viral diarrhea virus (BVDV), as it shares many similarities with the hepatitis C virus. Antiviral activity was assessed using the Pe 515 strain of BVDV on Madin Darby bovine kidney cells (MDBK cells). Both antiviral activity and cytotoxicity was determined by means of the MTS method. The EC50 is the concentration required to reduce virus induced cytopathic effect by 50%. The MTC (minimal toxic concentration) was defined as the concentration that caused >=20% reduction in cell metabolism.

SMILES	MTC (μg/ml) MDBK [µg/mL]
CCCOC1C(Cc2ccccc2)OC2COC(c3ccccc3)OC2C1OCCC (stereo not drawn) [Compound A1]	> 100
CCCCOC1C(Cc2ccccc2)OC2COC(c3ccccc3)OC2C1OCCCC (stereo not drawn) [Compound A2]	> 100
CC(C)OC1C(c2ccccc2)OC2COC(c3ccccc3)OC2C1OC(C)C (stereo not drawn) [Compound A3]	> 100
